From article PMC12406728
These are yes or no findings as the source states them, for the method shown. In cells and extracts the contact can be indirect. Some entries that bind do so weakly or less than the wild type. For some of these results: Sequences can lack the tags named with a protein. One block for each binder: values may come before it.

By UniProt entry, the sequences of proteins in these tests, tags left out. Residues count along the entry.
UniProt P21860, residues 20-1342: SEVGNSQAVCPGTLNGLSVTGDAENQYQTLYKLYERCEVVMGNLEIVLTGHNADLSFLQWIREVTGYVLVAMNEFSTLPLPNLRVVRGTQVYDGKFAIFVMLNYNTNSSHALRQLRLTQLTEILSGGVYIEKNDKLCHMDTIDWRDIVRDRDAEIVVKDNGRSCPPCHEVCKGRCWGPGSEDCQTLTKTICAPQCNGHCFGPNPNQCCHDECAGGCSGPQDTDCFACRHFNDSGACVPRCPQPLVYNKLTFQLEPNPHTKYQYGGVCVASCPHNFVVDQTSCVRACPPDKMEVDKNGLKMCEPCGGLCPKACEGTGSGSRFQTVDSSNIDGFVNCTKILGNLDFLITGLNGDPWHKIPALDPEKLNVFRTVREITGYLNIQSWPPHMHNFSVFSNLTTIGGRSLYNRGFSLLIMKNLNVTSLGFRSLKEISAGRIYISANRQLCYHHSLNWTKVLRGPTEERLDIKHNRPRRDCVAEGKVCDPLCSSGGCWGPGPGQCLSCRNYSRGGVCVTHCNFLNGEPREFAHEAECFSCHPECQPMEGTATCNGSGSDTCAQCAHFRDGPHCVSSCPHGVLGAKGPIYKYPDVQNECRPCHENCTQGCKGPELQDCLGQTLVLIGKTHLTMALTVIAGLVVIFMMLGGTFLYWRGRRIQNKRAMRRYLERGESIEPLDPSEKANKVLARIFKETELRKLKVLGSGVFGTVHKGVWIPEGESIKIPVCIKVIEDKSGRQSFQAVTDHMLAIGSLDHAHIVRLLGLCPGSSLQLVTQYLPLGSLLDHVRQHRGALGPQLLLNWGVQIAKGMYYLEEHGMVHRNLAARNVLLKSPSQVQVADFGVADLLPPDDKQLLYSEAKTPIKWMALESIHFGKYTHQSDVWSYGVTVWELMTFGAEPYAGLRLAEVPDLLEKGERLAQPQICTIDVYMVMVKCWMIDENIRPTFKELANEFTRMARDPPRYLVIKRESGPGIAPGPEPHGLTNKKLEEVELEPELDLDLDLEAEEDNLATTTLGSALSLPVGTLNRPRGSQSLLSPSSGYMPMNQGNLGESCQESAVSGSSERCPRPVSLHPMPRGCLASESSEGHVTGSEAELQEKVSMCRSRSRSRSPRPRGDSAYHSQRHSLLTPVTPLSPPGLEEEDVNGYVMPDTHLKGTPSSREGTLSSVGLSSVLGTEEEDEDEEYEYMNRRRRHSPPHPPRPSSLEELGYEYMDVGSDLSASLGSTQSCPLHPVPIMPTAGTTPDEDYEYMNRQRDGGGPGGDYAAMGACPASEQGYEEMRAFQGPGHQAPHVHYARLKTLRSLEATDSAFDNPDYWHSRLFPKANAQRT

Experiments:
[1] = biological target: HER3 (transfected, no tag named) (UniProt P21860); assay: proximity ligation; HEK293 cells transfected with HER3 and ASPN-FLAG; PLA with anti-ASPN and anti-HER3, confocal microscopy
[2] = biological target: human HER3-FLAG (transfected) (human) (UniProt P21860); assay: co-IP; LNCaP cells transfected with HER3-FLAG and ASPN or empty vector; anti-FLAG beads; immunoblot for HER3, HER2, ASPN
[3] = biological target: human HER3-FLAG (transfected) (human) (UniProt P21860); assay: co-IP; LNCaP HER2-KO cells transfected with HER3-FLAG, ASPN, with or without HER2; anti-FLAG beads; immunoblot for HER3, HER2, ASPN
[4] = biological target: human HER3-FLAG (transfected) (human) (UniProt P21860); assay: co-IP; HEK293 cells transfected with FLAG-tagged HER3 (or deletion mutant) and ASPN or empty vector; anti-FLAG beads; immunoblot for HER3, HER2, ASPN

binding [1]: binds
B1: ASPN-FLAG (ligand, UniProt Q9BXN1 33-380)
chain: DMEDTDDDDDDDDDDDDDDEDNSLFPTREPRSHFFPFDLFPMCPFGCQCYSRVVHCSDLGLTSVPTNIPFDTRMLDLQNNKIKEIKENDFKGLTSLYGLILNNNKLTKIHPKAFLTTKKLRRLYLSHNQLSEIPLNLPKSLAELRIHENKVKKIQKDTFKGMNALHVLEMSANPLDNNGIEPGAFEGVTVFHIRIAEAKLTSVPKGLPPTLLELHLDYNKISTVELEDFKRYKELQRLGLGNNKITDIENGSLANIPRVREIHLENNKLKKIPSGLPELKYLQIIFLHSNSIARVGVNDFCPTVPKMKKSLYSAISLFNNPVKYWEMQPATFRCVLSRMSVQLGNFGM

binding [2]: binds | binding [3]: binds | binding [4]: binds
B2: human ASPN (transfected) (ligand, UniProt Q9BXN1 33-380)
chain: B1 chain
